Values from PubChem BioAssay AID1259307 (Sanger Institute, 2017)
The whole screen tested 794 reagents; this is an unselected part. 15 of all reagents (1.9%) count as active. 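Calls reflect lethality without any drug; synergy scores did not enter the calls.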 Viability is capped at 1. Not given: the amount of reagent, the time to read-out.

Assay: 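siRNA kinome screen seeking kinases whose loss harms SW620 cells alone or with drugs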 (primary screen)
Cells: SW620 colorectal cancer cells
Reagent: siRNA pool against human genes
Challenge: anchor drugs BYL719 at 1 µM, cetuximab at 5 µg/ml or trametinib at 10 nM, each beside a DMSO vehicle arm
Detection: 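Per-well viability versus non-targeting control pool, replicate-averaged, robust z-score from controls; synergy scores for BYL719 1 µM, cetuximab 5 µg/ml, trametinib 10 nM against DMSO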
Direction: viability robust z-score, no drug and viability vs control, no drug: higher = more viable cells; synergy score with BYL719 and synergy score with cetuximab and synergy score with trametinib: higher = stronger synthetic lethality with the drug
Hit rule: 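a knock-down counts as lethal alone if its drug-free robust viability z-score is lower than -3, regardless of synergy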
Calls: active = essential (lethal alone); inactive = no change alone

Target gene	viability robust z-score, no drug	viability vs control, no drug	synergy score with BYL719	synergy score with cetuximab	synergy score with trametinib	outcome
CHKA	-0.606	0.876	-0.0178	-0.0441	0.145	inactive
DCLK1	0.736	1	-0.04	0.0745	-0.0131	inactive
NEK4	-0.277	0.906	-0.00381	0.0733	0.0394	inactive
EPHB1	0.736	1	-0.0656	0	0.017	inactive
CLSPN	0.736	1	0.0227	0.101	0.0969	inactive
EPHB4	-0.108	0.922	0.0042	-0.0779	0.0282	inactive
NEK3	0.736	1	0.00846	0.0652	0.0226	inactive
ZC3H11A	-0.208	0.913	-0.0214	0.047	0.117	inactive
NR2F2	0.0948	0.941	-0.00823	-0.0209	0.0554	inactive
TEK	0.736	1	0.0245	0	-0.0478	inactive
STK17A	-0.748	0.863	-0.00838	-0.0961	-0.0529	inactive
CDK4	0.354	0.965	-0.0902	0.0131	-0.071	inactive
ELP1	-0.0113	0.931	-0.0909	-0.069	-0.155	inactive
GRK7	0.284	0.958	-0.0859	-0.0417	0.0604	inactive
PFKFB1	-1.43	0.8	-0.0765	0.000149	0.0255	inactive
TJP2	-1.61	0.783	0.0191	0.0434	-0.0453	inactive
MST1R	0.736	1	0.0274	0	-0.136	inactive
STK32B	-1.76	0.77	-0.0323	0.037	0.0601	inactive
PIP4K2A	0.137	0.945	-0.0778	-0.0553	-0.0888	inactive
RPS6KC1	0.557	0.983	0.0654	-0.0165	-0.052	inactive
WHR1	0.736	1	-0.0878	0	0.00604	inactive
CDC73	-1.25	0.817	-0.0941	-0.0384	0.0197	inactive
RNASEL	-0.0146	0.931	-0.0259	-0.0693	-0.0481	inactive
MYLK2	-0.484	0.887	-0.0345	-0.104	0.0374	inactive
RPS6KA6	-0.0367	0.929	-0.0812	0.0307	-0.0378	inactive
MAPK13	0.736	1	-0.041	0	-0.0234	inactive
EXOSC10	-0.791	0.859	0.0454	0.0369	-0.00183	inactive
LATS2	0.736	1	-0.0567	0	0.0321	inactive
TSSK4	0.463	0.975	-0.11	0.0322	0.0145	inactive
MOS	-0.0714	0.925	-0.00296	-0.0248	-0.0128	inactive
PI4KA	0.736	1	-0.0811	0	-0.0997	inactive
STK4	0.109	0.942	-0.0551	-0.00863	0.0195	inactive
ALPK1	-0.429	0.892	-0.0391	-0.0886	-0.0365	inactive
RBM10	-2.04	0.743	-0.119	0.0609	-0.0427	inactive
ZAP70	0.138	0.945	-0.0198	-0.0131	-0.0283	inactive
LMTK2	0.433	0.972	0.0184	0.0399	0.0502	inactive
TSSK3	-1.32	0.811	-0.104	-0.0685	-0.135	inactive
CHKB	0.736	1	-0.0675	0	-0.000894	inactive
MAP2K4	0.736	1	-0.0144	0	-0.00321	inactive
CALM3	0.485	0.977	-0.0694	-0.0231	-0.0367	inactive
KCNH2	-0.622	0.875	-0.0139	-0.0422	-0.118	inactive
TAF1L	0.331	0.963	-0.126	-0.0373	-0.00928	inactive
SIK3	-1.77	0.769	-0.25	-0.231	-0.186	inactive
MLKL	0.0975	0.941	-0.00869	-0.0589	0.0367	inactive
CSNK2B	-0.644	0.873	-0.114	0.0661	-0.0122	inactive
MAPK10	0.736	1	-0.0171	0.0388	-0.00672	inactive
GAK	0.736	1	0.0119	0	-0.0361	inactive
EPHA2	0.519	0.98	-0.11	-0.02	0.0105	inactive
NME6	-0.927	0.847	-0.0396	0.0208	0.0295	inactive
CSNK1A1L	0.736	1	-0.0919	0.0276	0.00312	inactive

No new results follow: an excerpt of the list.
Target gene	viability robust z-score, no drug	viability vs control, no drug	synergy score with BYL719	synergy score with cetuximab	synergy score with trametinib	outcome
EPHB4	-0.108	0.922	0.0042	-0.0779	0.0282	inactive
NEK3	0.736	1	0.00846	0.0652	0.0226	inactive
ZC3H11A	-0.208	0.913	-0.0214	0.047	0.117	inactive
NR2F2	0.0948	0.941	-0.00823	-0.0209	0.0554	inactive
TEK	0.736	1	0.0245	0	-0.0478	inactive
